Results deposited as PubChem BioAssay AID1224830 (NIAID, 2016)

Purpose: 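Host factors that control LPS-induced TNF expression in human macrophages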 (primary screen)
System: human THP-1 monocytic leukaemia cells, TNF dual-luciferase reporter clone, PMA-differentiated to macrophage-like cells
Knock-down reagent: siRNA pool against human genes, 50 nM
Timing: LPS for 4 h, given about 3 days after siRNA transfection
Conditions: bacterial LPS (TLR4 ligand), 10 ng/ml
Measured: 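TNF firefly reporter luminescence divided by renilla, normalised to the plate median, then turned into a robust z-score for each replicate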
Reading the numbers: TNF reporter robust z-score: higher = stronger TNF reporter response to LPS
Hit rule: 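Each well counts as active if its z-score is over 2.8 or under -1.5; controls are left without a call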
This is an unselected part of about 18,000 reagents. Over the whole deposit, about 2,900 (16%) are marked active. 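Calls are made per well; low scores hint the gene aids the LPS response, high scores that it dampens it.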 Repeated entries: four replicate wells of each siRNA pool.

ZNF423 scored TNF reporter robust z-score 0.16; inactive. ZNF423 showed TNF reporter robust z-score 1.27; inactive. Against ZNF423, the entry reads TNF reporter robust z-score -0.46; inactive. Depletion of ZNF423 gave: TNF reporter robust z-score -0.09; inactive. PAGE2 scored TNF reporter robust z-score 1.06; inactive. Knock-down of PAGE2 resulted in: TNF reporter robust z-score 1.07; inactive.

With knock-down of PAGE2, the record shows TNF reporter robust z-score 0.91; inactive. PAGE2 gave TNF reporter robust z-score -0.89; inactive. For MYL12A, the entry reads TNF reporter robust z-score -0.32; inactive. Against MYL12A the deposit lists TNF reporter robust z-score -0.14; inactive. Knock-down of MYL12A resulted in: TNF reporter robust z-score 1.23; inactive. With knock-down of MYL12A, the screen gave TNF reporter robust z-score 1.73; inactive.

GLRA4 showed TNF reporter robust z-score -0.4; inactive. For GLRA4 the deposit lists TNF reporter robust z-score 2.95; active. GLRA4 gave TNF reporter robust z-score 0.14; inactive. Against GLRA4 the deposit lists TNF reporter robust z-score -0.05; inactive. ACP2 gave TNF reporter robust z-score 1.51; inactive. With knock-down of ACP2, the screen gave TNF reporter robust z-score 2.11; inactive.

ACP2 gave TNF reporter robust z-score 2.52; inactive. With knock-down of ACP2, the screen gave TNF reporter robust z-score 0.05; inactive. AKT3 showed TNF reporter robust z-score -0.27; inactive. For AKT3, the values are TNF reporter robust z-score -0.08; inactive. With knock-down of AKT3 the results were TNF reporter robust z-score -1.16; inactive. Against AKT3, the values are TNF reporter robust z-score -0.65; inactive.

Knock-down of MRRF came out at: TNF reporter robust z-score -0.52; inactive. Depletion of MRRF gave: TNF reporter robust z-score -0.59; inactive. MRRF gave TNF reporter robust z-score -0.74; inactive. For MRRF, the entry reads TNF reporter robust z-score -0.97; inactive. For FBXO46, the values are TNF reporter robust z-score 4.05; active. FBXO46 showed TNF reporter robust z-score 1.28; inactive.

Knock-down of FBXO46 resulted in: TNF reporter robust z-score 7.93; active. For FBXO46 the deposit lists TNF reporter robust z-score 0.47; inactive.
